# Conditions: human, in vivo
compound,measurement,value
CC(C)c1c(C(=O)Nc2ccccc2)c(-c2ccccc2)c(-c2ccc(F)cc2)n1CC[C@@H](O)C[C@@H](O)CC(=O)O [atorvastatin],association of CYP3A polymorphisms with PK parameters,no significant association

# From article PMC7235792, “Effect of the Most Relevant CYP3A4 and CYP3A5 Polymorphisms on the Pharmacokinetic Parameters of 10 CYP3A Substrates” (Biomedicines, 2020)
